Laboratory results as given in paper doi:10.1101/2025.03.28.645892.
Results are given in words; binding and its absence hold for the method and conditions named. Some results given as binding are weak or reduced against the parent protein; the word gives no strength.

Amino acid sequences for entries named in this document (tags omitted). A change or cut given only in a name is not applied to a line headed by its entry.
UniProt P54609: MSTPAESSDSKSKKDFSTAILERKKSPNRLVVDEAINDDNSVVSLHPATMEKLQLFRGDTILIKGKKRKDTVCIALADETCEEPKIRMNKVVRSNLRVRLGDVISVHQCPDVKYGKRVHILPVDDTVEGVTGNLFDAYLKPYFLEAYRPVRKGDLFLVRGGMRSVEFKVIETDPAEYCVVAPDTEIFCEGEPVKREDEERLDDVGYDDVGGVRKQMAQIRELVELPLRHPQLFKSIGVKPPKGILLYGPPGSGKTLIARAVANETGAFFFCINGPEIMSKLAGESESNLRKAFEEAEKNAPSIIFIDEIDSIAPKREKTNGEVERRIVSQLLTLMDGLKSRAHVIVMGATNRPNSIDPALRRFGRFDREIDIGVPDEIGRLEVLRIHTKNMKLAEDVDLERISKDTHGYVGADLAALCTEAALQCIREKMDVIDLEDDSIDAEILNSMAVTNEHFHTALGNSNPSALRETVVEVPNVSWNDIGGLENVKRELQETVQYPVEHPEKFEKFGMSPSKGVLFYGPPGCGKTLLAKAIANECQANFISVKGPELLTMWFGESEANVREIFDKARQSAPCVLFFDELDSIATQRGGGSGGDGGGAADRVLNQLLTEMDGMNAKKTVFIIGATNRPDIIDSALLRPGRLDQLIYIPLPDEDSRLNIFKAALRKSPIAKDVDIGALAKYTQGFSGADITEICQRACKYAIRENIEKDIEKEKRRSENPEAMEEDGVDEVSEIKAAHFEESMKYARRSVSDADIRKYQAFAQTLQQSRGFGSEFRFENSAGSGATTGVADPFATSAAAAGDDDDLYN

Experiments:
[1] = biological target: T1, Arabidopsis thaliana NPL4 (Arabidopsis thaliana) (UniProt O82264); test: SEC-MALS
T1 sequence (chain, Alexa-488 dye label in the MST experiments only): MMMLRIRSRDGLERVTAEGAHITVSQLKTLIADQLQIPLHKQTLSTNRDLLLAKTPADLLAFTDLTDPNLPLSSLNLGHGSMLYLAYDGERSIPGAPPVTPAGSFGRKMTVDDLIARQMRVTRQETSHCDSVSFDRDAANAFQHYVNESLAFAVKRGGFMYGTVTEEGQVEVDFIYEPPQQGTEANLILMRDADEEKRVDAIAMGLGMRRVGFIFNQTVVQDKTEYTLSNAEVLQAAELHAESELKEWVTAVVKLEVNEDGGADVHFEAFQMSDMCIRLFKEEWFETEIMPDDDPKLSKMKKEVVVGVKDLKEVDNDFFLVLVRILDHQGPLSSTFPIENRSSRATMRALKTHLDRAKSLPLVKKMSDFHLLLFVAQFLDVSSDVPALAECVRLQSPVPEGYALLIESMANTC

[2] = biological target: T1, Arabidopsis thaliana NPL4 (Arabidopsis thaliana); test: SEC-MALS; remark: listed apart in the source
[3] = biological target: T1, Arabidopsis thaliana NPL4 (Arabidopsis thaliana); test: MST
[4] = biological target: T2, AtCDC48A saturated with AtNPL4 (Arabidopsis thaliana) (UniProt P54609+O82264); test: MST
[5] = biological target: T1, Arabidopsis thaliana NPL4 (Arabidopsis thaliana); test: MST; remark: listed apart in the source
[6] = biological target: T2, AtCDC48A saturated with AtNPL4 (Arabidopsis thaliana); test: ITC

B1: Arabidopsis thaliana UFD1B (protein, UniProt Q9SJV0 1-340)
chain: MVLRFCCHLLTYSVSLLPPITMFFDGYHYHGTTFEQSYRCYPASFIDKPQLESGDKIIMPPSALDRLASLHIDYPMLFELRNAGIERVTHCGVLEFIAEEGMIYMPYWMMQNLLLQEGDIVRVRNVTLPKGTYVKLQPHTTDFLDISNPKAILETALRNYSCLTSGDSIMVPYNNKKYFIDIVETKPANAISIIETDCEVDFAPPLDYKEPERPTAPSAAKGPAKAEEVVDEPEPKFNPFTGSGRRLDGRPLAYEPAPASSSKGKQPVVANGNGQSSVASSSEKATRAQGKLVFGANGNRAPKEAAPKVGAAKETKKEEQEKKDEPKFQAFSGKKYSLRG
- binding [1]: no binding
- binding [2]: no binding
- binding [3]: no binding
- binding [4]: binds
- binding [5]: no binding (tested: Kd > 200 µM)
- binding [6]: binds
